Laboratory results taken from article PMC11144933.
These are yes or no findings as the source states them, for the method shown. In cells and extracts the contact can be indirect. A yes stands for co-enrichment or nearness to the bait. Other partners may have been found.

Protein sequences, listed by entry. Tags and fused reporters are not part of them.
UniProt Q61180: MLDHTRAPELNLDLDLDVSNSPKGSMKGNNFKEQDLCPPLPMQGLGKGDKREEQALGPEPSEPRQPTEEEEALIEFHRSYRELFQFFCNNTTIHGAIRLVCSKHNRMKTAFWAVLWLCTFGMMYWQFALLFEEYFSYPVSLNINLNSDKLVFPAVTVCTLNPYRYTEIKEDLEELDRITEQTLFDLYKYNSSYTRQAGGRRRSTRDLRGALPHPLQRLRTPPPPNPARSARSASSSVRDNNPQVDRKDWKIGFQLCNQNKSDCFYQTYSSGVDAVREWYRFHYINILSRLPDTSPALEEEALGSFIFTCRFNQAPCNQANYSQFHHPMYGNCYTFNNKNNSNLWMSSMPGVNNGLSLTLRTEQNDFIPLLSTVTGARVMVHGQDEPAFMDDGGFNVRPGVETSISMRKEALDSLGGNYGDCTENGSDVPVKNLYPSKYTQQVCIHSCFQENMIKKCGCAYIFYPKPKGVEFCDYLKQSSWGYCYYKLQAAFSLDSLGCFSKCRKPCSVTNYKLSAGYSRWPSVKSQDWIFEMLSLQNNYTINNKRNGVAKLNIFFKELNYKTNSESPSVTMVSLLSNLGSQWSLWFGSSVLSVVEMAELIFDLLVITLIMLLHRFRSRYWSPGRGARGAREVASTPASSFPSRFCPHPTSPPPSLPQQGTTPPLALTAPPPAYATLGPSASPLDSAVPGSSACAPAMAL

Each binder was assayed against epithelial sodium channel alpha subunit (α-ENaC) (mouse (endogenous in MIN6)) (UniProt Q61180) (assay: affinity purification with mass spectrometry; LC-MS/MS screen for α-ENaC binding proteins in MIN6 cells; how α-ENaC was isolated is not told).

Row | binding | Binder
1 | binds | Isoform 3 of N-alpha-acetyltransferase 50 (protein, UniProt Q6PGB6-3 1-129) MKGSRIELGDVTPHNIKQLKRLNQVIFPVSYNDKFYKDVLEVGELAKLGTKMLNHVLNICEKDGTFDNIYLHVQISNESAIDFYRKFGFEIIETKKNYYKRIEPADAHVLQKNLKVPSGQNAETQKTDN
2 | binds | ATP-citrate synthase (protein, UniProt Q91V92 1-1091) MSAKAISEQTGKELLYKYICTTSAIQNRFKYARVTPDTDWAHLLQDHPWLLSQSLVVKPDQLIKRRGKLGLVGVNLSLDGVKSWLKPRLGHEATVGKAKGFLKNFLIEPFVPHSQAEEFYVCIYATREGDYVLFHHEGGVDVGDVDAKAQKLLVGVDEKLNTEDIKRHLLVHAPEDKKEVLASFISGLFNFYEDLYFTYLEINPLVVTKDGVYILDLAAKVDATADYICKVKWGDIEFPPPFGREAYPEEAYIADLDAKSGASLKLTLLNPKGRIWTMVAGGGASVVYSDTICDLGGVNELANYGEYSGAPSEQQTYDYAKTILSLMTREKHPEGKILIIGGSIANFTNVAATFKGIVRAIRDYQGPLKEHEVTIFVRRGGPNYQEGLRVMGEVGKTTGIPIHVFGTETHMTAIVGMALGHRPIPNQPPTAAHTANFLLNASGSTSTPAPSRTASFSESRADEVAPAKKAKPAMPQGKSATLFSRHTKAIVWGMQTRAVQGMLDFDYVCSRDEPSVAAMVYPFTGDHKQKFYWGHKEILIPVFKNMADAMKKHPEVDVLINFASLRSAYDSTMETMNYAQIRTIAIIAEGIPEALTRKLIKKADQKGVTIIGPATVGGIKPGCFKIGNTGGMLDNILASKLYRPGSVAYVSRSGGMSNELNNIISRTTDGVYEGVAIGGDRYPGSTFMDHVLRYQDTPGVKMIVVLGEIGGTEEYKICRGIKEGRLTKPVVCWCIGTCATMFSSEVQFGHAGACANQASETAVAKNQALKEAGVFVPRSFDELGEIIQSVYEDLVAKGAIVPAQEVPPPTVPMDYSWARELGLIRKPASFMTSICDERGQELIYAGMPITEVFKEEMGIGGVLGLLWFQRRLPKYSCQFIEMCLMVTADHGPAVSGAHNTIICARAGKDLVSSLTSGLLTIGDRFGGALDAAAKMFSKAFDSGIIPMEFVNKMKKEGKLIMGIGHRVKSINNPDMRVQILKDFVKQHFPATPLLDYALEVEKITTSKKPNLILNVDGFIGVAFVDMLRNCGSFTREEADEYVDIGALNGIFVLGRSMGFIGHYLDQKRLKQGLYRHPWDDISYVLPEHMSM
3 | binds | 5′-nucleotidase domain-containing protein 3 (protein, UniProt Q3UHB1 1-546) MATVAAAARGAGARAAAGLRSCGGAVARERPRSGCARRLCSAPAAPAAVDMKSYLWARYHEAKRSTDELVPSIMNNLLNPDAIFSNNEMSLSDIEIYGFDYDYTLVFYSKHLHTLIFNAARDLLINEHRYPVEIRKYEYDPSFAIRGLHYDVQRAVLMKIDAFHYIQMGTVYRGLSVVPDEEVIDMYEGSHVPLEQMSDFYGKSSHGNTMKQFMDIFSLPEMTLLSCVNEHFLKNNIDYEPVHLYKDVKDSIRDVHIKGIMYRAIEADIEKYICYADQTRAVLAKLAAHGKKMFLITNSPSSFVDKGMRYIVGKDWRDLFDVVIVQAEKPNFFNDKRRPFRKVNEKGVLLWDKIHKLQKGQIYKQGNLYEFLKLTGWRGSKVLYFGDHIYSDLADLTLKHGWRTGAIIPELRSELRIMNTEQYIQTMTWLQTLTGLLEQMQVHRDAESQLVLQEWKKERKEMREMTKSFFNAQFGSLFRTDQNPTYFLRRLSRFADIYMASLSCLLNYDVHHTFYPRRTPLQHELPAWSDSPSAFKAPLLQEAQAK
